From paper PMC7819943, “Rice protein-binding microarrays: a tool to detect cis-acting elements near promoter regions in rice” come the findings set out here.

Sequences of proteins named here, by UniProt entry; tags and fusion partners are left off.
UniProt Q0JBA9, entry or part of it: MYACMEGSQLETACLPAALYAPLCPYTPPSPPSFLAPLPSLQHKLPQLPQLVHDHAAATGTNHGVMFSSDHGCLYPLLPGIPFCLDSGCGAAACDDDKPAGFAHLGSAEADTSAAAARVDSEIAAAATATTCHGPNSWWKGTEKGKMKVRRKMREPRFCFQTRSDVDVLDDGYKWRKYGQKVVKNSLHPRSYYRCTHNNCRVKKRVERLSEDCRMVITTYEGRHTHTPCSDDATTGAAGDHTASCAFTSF

The list shows a part of the results.

In this assay the target is OsWRKY34 (Oryza sativa, UniProt Q0JBA9 1-250). Kind of assay: protein-binding microarray (RPBM); PBS, 2% BSA, 51.3 ng/ul salmon testes DNA, 50 uM zinc acetate, 200 nM TF, 25 C, 1 h; high values mean tight binding. Particulars: protein: recombinant; tags: N-terminal polyhistidine and DsRed monomer fusion (pET32a); label: CyDye5-dUTP incorporated in the synthesized complementary strand; 3' TTTTT single-stranded linker to array surface; dsDNA, one strand shown. Put shortly: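 Per-feature fluorescence intensity (arbitrary units), read on an Axon 4000B scanner, is the binding signal. Transcription factors carrying an N-terminal polyhistidine tag and DsRed fusion were expressed in E. coli BL21-CodonPlus and purified on Ni–NTA. A custom Agilent array, made double-stranded by primer extension with Cy5-dUTP and blocked with 2% BSA, was incubated with 200 nM protein in PBS, 2% BSA, salmon testes DNA and 50 µM zinc acetate at 25 °C for 1 h and then washed.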
As for “GTTTCCTGGTGGTCCAATATAATACCTAGATAAGGTGTATCGGAGTCACCTAGTGCAG”, the binding signal was 8510 fluorescence intensity (a.u.).

Turning to “ACGCACACACGCACACCCTATCACTATGAGCACCTCCGGACGGAGTCACCTAGTGCAG”, the binding signal is 10100 fluorescence intensity (a.u.).

Regarding “CGCAACCCCAAGCACTGGTGTTCTACATTCAATCAATCATCGGAGTCACCTAGTGCAG”, the binding signal is 38500 fluorescence intensity (a.u.).

With “TCCTCTTGTTTGTGGCAAAGATCTGGGTTCTTTTTTTTTCCGGAGTCACCTAGTGCAG”, the binding signal is 9000 fluorescence intensity (a.u.).

With “TTCAGATCCATAGTATTAGGTTGTGTCTAATCTCTGTCCACGGAGTCACCTAGTGCAG”, the binding signal was 8140 fluorescence intensity (a.u.).

For “AATCTTCTACCACTTAATTCTACCTACTTTCTTAATAACTCGGAGTCACCTAGTGCAG”, the binding signal was 8690 fluorescence intensity (a.u.).

“GGCGGTTTTTAAACTTATAGGGTTGTATCATCTAGGTCTTCGGAGTCACCTAGTGCAG”: the binding signal is 8300 fluorescence intensity (a.u.).

Consider “TGCTATTGGAACCTTTTACTTGATATAATACAATATAATACGGAGTCACCTAGTGCAG”, for which the binding signal was 8090 fluorescence intensity (a.u.).

In the case of “GTCATCGACATGTGGTGGTGAATTTGCTTTTCTTTTTCTACGGAGTCACCTAGTGCAG”, the binding signal is 8050 fluorescence intensity (a.u.).

Turning to “TCCCACCTTCCGCTCGTTTTTCTTGAGCATATGCTTCTCACGGAGTCACCTAGTGCAG”, the binding signal was 10100 fluorescence intensity (a.u.).

On to “GCACACCGTAGCTAACTTCTCTCCTTCTGGGTATAAATATCGGAGTCACCTAGTGCAG”, for which the binding signal was 8240 fluorescence intensity (a.u.).

With “ATGCTTCCCGTTGCAACGCACAGGTATTTTTGCTAGTAAACGGAGTCACCTAGTGCAG”, the binding signal is 9980 fluorescence intensity (a.u.).

As to “TCATGGGTGAGTCCACGCGTATTACATGATTTTTATTCCCCGGAGTCACCTAGTGCAG”, the binding signal was 8300 fluorescence intensity (a.u.).

As to “ATCACCCGCCTCGCCGCCCGCCCGCGCCGCGGCGGATCGACGGAGTCACCTAGTGCAG”, the binding signal is 8550 fluorescence intensity (a.u.).

“ATCTCGCCTCGCGTCCTCCGTCCGTCCTCGTCAAGTCGTCCGGAGTCACCTAGTGCAG”: the binding signal is 14100 fluorescence intensity (a.u.).

Turning to “CAACAATTCCTTCCTTCCTTCCTTTGTGGTTGACCAAATACGGAGTCACCTAGTGCAG”, the binding signal was 9570 fluorescence intensity (a.u.).

Consider “CCTTGCCCGTGGCCGCACACCACACCATAGCCGGCAGCAGCGGAGTCACCTAGTGCAG”, for which the binding signal is 10600 fluorescence intensity (a.u.).

“CTAGCGCATATTAGCCGTTGGTTGGTTTAGTATACGTACGCGGAGTCACCTAGTGCAG”: the binding signal is 10400 fluorescence intensity (a.u.).

For “CTTCCCATCTCGTTTCCACCGCACCTTTTTCCTCTCGGCGCGGAGTCACCTAGTGCAG”, the binding signal is 10000 fluorescence intensity (a.u.).

As for “GTCAGTTTCTCTTTTTTTTTCCCGTGAAATTAGGCGCTAGCGGAGTCACCTAGTGCAG”, the binding signal is 8640 fluorescence intensity (a.u.).

Turning to “CTCCGGCCTACATCTTCCTGCATTCATCACAACACCATCCCGGAGTCACCTAGTGCAG”, the binding signal was 13000 fluorescence intensity (a.u.).

For “GCTTTTTCCATCGTGATTCCTTCACCGTAACGGGATCATCCGGAGTCACCTAGTGCAG”, the binding signal was 9680 fluorescence intensity (a.u.).

On to “AAAATTAGGCGCATTCATTCTTGACCTTACGTACCGAGATCGGAGTCACCTAGTGCAG”, for which the binding signal was 9210 fluorescence intensity (a.u.).

Regarding “TTGCCGCATCACCCGTCGCCACCATCACCGCCGTCGCGTCCGGAGTCACCTAGTGCAG”, the binding signal is 9390 fluorescence intensity (a.u.).

As for “GAGTGAACATCGTCGTCTGCATCTACTCGATCGCGCAAGCCGGAGTCACCTAGTGCAG”, the binding signal is 8410 fluorescence intensity (a.u.).

Regarding “ACTTAATACTAAGCATTCCTGTATTTTTCCTACCAATCATCGGAGTCACCTAGTGCAG”, the binding signal is 9010 fluorescence intensity (a.u.).

“ATTATTTTCCTCTCATTTGATTCATTGTTAAATATACTACCGGAGTCACCTAGTGCAG”: the binding signal was 8330 fluorescence intensity (a.u.).

For “GAGAATTCGATGTTCCATCACTCTTAAGTTTAGGTTTTTCCGGAGTCACCTAGTGCAG”, the binding signal is 8510 fluorescence intensity (a.u.).

For “CGCCTCGGCCTCGCTCGCTTTCCCCTACTTCCAGCGATTTCGGAGTCACCTAGTGCAG”, the binding signal was 9380 fluorescence intensity (a.u.).

With “CCACTGTTCATCTTCAACCTCCAGCCATTCTTGTGTGTGACGGAGTCACCTAGTGCAG”, the binding signal is 8320 fluorescence intensity (a.u.).

In the case of “TTAAGTATGCTTTGCTGCTGCTGCTCTTTCTTCTCTCTGCCGGAGTCACCTAGTGCAG”, the binding signal was 9940 fluorescence intensity (a.u.).

Consider “TATATCCCTTTCACCCGCGCAGTCTCCATCGCCGCCGTTTCGGAGTCACCTAGTGCAG”, for which the binding signal is 11100 fluorescence intensity (a.u.).

Consider “TCACCGGTCTCATCCCCGTCATATGCATCCTTATCTCCAACGGAGTCACCTAGTGCAG”, for which the binding signal was 10500 fluorescence intensity (a.u.).

On to “TATATGCAATTTTCGTGTTATAACTATCCTGCTCTCGATCCGGAGTCACCTAGTGCAG”, for which the binding signal is 8840 fluorescence intensity (a.u.).

Regarding “TTCGTGTCTAACATTTGACTGTCTGTCTTATTTATTTTTTCGGAGTCACCTAGTGCAG”, the binding signal is 8640 fluorescence intensity (a.u.).

As for “CCTTCTTGCTGTGCACTCCCTCCTCAAAAAGAATGCAATTCGGAGTCACCTAGTGCAG”, the binding signal was 9810 fluorescence intensity (a.u.).

In the case of “TCATATTTCATGTCCATGGTAATTTTCATTATTTATTTTACGGAGTCACCTAGTGCAG”, the binding signal was 8470 fluorescence intensity (a.u.).

“TGCCAAGATCTTTCTGTGTTGAGGTATATGTCCATTTTGTCGGAGTCACCTAGTGCAG”: the binding signal is 12000 fluorescence intensity (a.u.).

Regarding “GCCGCTCGCCTGCAGCCCAAACATCTCCGATCTCCGGCGACGGAGTCACCTAGTGCAG”, the binding signal was 8840 fluorescence intensity (a.u.).

In the case of “TGTTTTTTGATCGATTCAATTCCTCGCGTCGCGCGACATGCGGAGTCACCTAGTGCAG”, the binding signal was 11300 fluorescence intensity (a.u.).

As for “AGTATTCCACCACGCGCTGCCCTCCGGTCGTTGTCCCATCCGGAGTCACCTAGTGCAG”, the binding signal is 8940 fluorescence intensity (a.u.).

On to “TCACCAACTCTTCTTATAATATATATATTTTGGTAACCCTCGGAGTCACCTAGTGCAG”, for which the binding signal was 10000 fluorescence intensity (a.u.).
